Publication doi:10.1101/2025.02.27.640524 (bioRxiv, 2025)
No constants are given. Whether binding was seen depends on the method and setting. Binding seen in cells or lysates may run through a third protein. Some entries that bind do so weakly or less than the wild type. Sequences can lack the tags named with a protein.

Amino acid sequences for entries named in this document (tags omitted).
UniProt C8VTS4: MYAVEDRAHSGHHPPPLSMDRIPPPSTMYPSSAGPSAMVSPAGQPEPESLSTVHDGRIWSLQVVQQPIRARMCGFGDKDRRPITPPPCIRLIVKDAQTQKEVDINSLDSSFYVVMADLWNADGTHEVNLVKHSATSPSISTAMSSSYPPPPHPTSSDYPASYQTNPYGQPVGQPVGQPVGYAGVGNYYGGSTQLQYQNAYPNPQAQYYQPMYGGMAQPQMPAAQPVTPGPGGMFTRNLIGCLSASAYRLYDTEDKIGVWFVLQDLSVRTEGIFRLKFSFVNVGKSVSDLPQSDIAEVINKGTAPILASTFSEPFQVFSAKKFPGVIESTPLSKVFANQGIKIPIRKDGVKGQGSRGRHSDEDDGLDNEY

Tests used:
[1] = biological target: T1, VeA-HA (A. nidulans Velvet A with HA tag) (Aspergillus nidulans) (UniProt C8VTV4); assay: co-IP
T1 sequence: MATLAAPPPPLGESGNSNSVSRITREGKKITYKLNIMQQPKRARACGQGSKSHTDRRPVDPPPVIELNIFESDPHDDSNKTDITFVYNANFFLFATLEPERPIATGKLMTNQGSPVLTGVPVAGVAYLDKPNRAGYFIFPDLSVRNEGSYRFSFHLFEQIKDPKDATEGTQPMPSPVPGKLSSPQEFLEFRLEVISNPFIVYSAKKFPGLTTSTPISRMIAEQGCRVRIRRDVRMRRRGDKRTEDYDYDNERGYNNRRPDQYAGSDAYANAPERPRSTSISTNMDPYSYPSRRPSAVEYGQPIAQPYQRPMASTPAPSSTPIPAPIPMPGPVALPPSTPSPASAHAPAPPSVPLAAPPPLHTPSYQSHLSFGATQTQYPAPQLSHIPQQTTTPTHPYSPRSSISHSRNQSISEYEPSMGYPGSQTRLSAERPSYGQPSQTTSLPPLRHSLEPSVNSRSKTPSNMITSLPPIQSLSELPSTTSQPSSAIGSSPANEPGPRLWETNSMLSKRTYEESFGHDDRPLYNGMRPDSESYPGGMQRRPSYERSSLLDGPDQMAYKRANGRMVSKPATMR

[2] = biological target: T2, VosA-HA (A. nidulans VosA with HA tag) (Aspergillus nidulans) (UniProt Q5BBX1); assay: co-IP
T2 sequence: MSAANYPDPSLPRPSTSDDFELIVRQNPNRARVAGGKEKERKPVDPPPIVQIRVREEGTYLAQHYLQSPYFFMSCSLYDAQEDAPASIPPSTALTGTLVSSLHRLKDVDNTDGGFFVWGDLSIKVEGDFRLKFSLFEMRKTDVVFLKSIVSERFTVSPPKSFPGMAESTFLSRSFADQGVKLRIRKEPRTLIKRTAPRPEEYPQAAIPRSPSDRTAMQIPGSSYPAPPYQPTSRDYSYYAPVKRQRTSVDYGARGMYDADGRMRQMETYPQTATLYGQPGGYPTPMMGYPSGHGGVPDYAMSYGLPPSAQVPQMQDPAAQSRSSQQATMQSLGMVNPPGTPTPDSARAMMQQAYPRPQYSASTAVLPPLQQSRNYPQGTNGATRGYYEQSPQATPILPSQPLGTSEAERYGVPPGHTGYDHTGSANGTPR

[3] = biological target: T3, VosA-GST (full length A. nidulans VosA fused to GST) (Aspergillus nidulans) (UniProt Q5BBX1); assay: pull-down
T3 sequence: T2 sequence

[4] = biological target: VelB-GFP (full length A. nidulans Velvet-like B fused to GFP) (Aspergillus nidulans) (UniProt C8VTS4); assay: co-IP

For “VelB-GFP (full length A. nidulans Velvet-like B fused to GFP) (from UniProt C8VTS4 1-369)”, the binding [1] was “binds” and the binding [2] was “binds”.

“VelB-His (full length A. nidulans VelB with His tag) (from UniProt C8VTS4 1-369)” was tested, and the binding [3] was “binds”.

B1: VeA-HA (A. nidulans Velvet A with HA tag) (protein, UniProt C8VTV4 1-573)
chain: T1 sequence
With B1 the binding [4] was “binds”.

B2: VosA-HA (A. nidulans VosA with HA tag) (natural protein)
chain: T2 sequence
For B2, the binding [4] was “binds”.
